Data reported in patent US20160237156A1.
These are yes or no findings as the source states them, for the method shown. Some entries that bind do so weakly or less than the wild type.

By UniProt entry, the sequences of proteins in these tests, tags left out.
UniProt P61073: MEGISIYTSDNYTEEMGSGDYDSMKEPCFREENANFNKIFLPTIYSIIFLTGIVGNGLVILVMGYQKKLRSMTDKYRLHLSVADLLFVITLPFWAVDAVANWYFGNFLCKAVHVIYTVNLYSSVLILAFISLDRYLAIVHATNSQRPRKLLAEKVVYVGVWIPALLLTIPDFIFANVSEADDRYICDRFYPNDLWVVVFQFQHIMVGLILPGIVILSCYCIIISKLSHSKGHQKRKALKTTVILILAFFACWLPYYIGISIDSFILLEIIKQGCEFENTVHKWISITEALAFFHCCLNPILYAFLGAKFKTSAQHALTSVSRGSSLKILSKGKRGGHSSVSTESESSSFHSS

What was measured:
[1] = target: SNAP-tag-CXCR4 (Tag-lite labeled CXCR4 cells, Cisbio Bioassays) (UniProt P61073); assay: Tag-lite HTRF competition against 50 nM fluorescently labeled SDF-1 on Tag-lite labeled CXCR4 cells
[2] = target: SNAP-tag-CXCR4 (Tag-lite labeled CXCR4 cells, Cisbio Bioassays) (UniProt P61073); assay: Tag-lite HTRF competition with 50 nM fluorescent ligand
[3] = target: SNAP-tag-CXCR4 (Tag-lite labeled CXCR4 cells, Cisbio Bioassays) (UniProt P61073); assay: Tag-lite HTRF competition against 50 nM fluorescent ligand (SDF-1) on Tag-lite labeled CXCR4 cells
[4] = target: SNAP-tag-CXCR4 (Tag-lite labeled CXCR4 cells, Cisbio Bioassays) (UniProt P61073); assay: Tag-lite HTRF binding assay
[5] = target: SNAP-tag-CXCR4 (Tag-lite labeled CXCR4 cells, Cisbio Bioassays) (UniProt P61073); assay: Tag-lite HTRF competition
CXCR4 (human) [6] = target: CXCR4 (human) (UniProt P61073); assay: flow cytometry, Alexa Fluor 647 goat anti-human IgG (axis: 2nd Ab APC)
CXCR4 (human) [7] = target: CXCR4 (human) (UniProt P61073); assay: flow cytometry on Jurkat cells and CXCR4 transfected CHO cells

B1: BLV1H12-beta BCCX2 HC 4 IgG (antibody, V domains shown)
VH: ASGFSLSDKAVGWVRQAPGKALEWLGSIDETKKYQSYRKCRGGRRWCYQKSYTYNYETGYNPGLKSRLSITKDNSKSQVSLSVSSVTTEDSATYYCTSVHQGGGGSWHVDVWGQGLLVTVSS
VL: QAVLNQPSSVSGSLGQRVSITCSGSSSNVGNGYVSWYQLIPGSAPRTLIYGDTSRASGVPDRFSGSRSGNTATLTISSLQAEDEADYFCASAEDSSSNAVFGSGTTLTVLG
[1]
  binding: binds
[2]
  binding: binds
[3]
  binding: binds

B2: BLV1H12-beta BCCX2 HC 2 IgG (antibody, V domains shown)
VH: QVQLRESGPSLVKPSQTLSLTCTASGFSLSDKAVGWVRQAPGKALEWLGSIDTGGNTGYNPGLKSRLSITKDNSKSQVSLSVSSVTTEDSATYYCTSVHQETKKYQSYRKCRGPRRWCYQKSYTYNYEWHVDVWGQGLLVTVSS
VL: QAVLNQPSSVSGSLGQRVSITCSGSSSNVGNGYVSWYQLIPGSAPRTLIYGDTSRASGVPDRFSGSRSGNTATLTISSLQAEDEADYFCASAEDSSSNAVFGSGTTLTVLG
[1]
  binding: binds
[4]
  binding: binds

B3: BLV1H12-beta BCCX2 HC 3 IgG (antibody, V domains shown)
VH: QVQLRESGPSLVKPSQTLSLTCTASGFSLSDKAVGWVRQAPGKALEWLGSIDTGGNTGYNPGLKSRLSITKDNSKSQVSLSVSSVTTEDSATYYCTSVHQETKKYQSYRKCRGGNGRRWCYQKSYTYNYEWHVDVWGQGLLVTVSS
VL: QAVLNQPSSVSGSLGQRVSITCSGSSSNVGNGYVSWYQLIPGSAPRTLIYGDTSRASGVPDRFSGSRSGNTATLTISSLQAEDEADYFCASAEDSSSNAVFGSGTTLTVLG
[1]
  binding: binds
[4]
  binding: binds
[5]
  binding: binds

B4: BLV1H12 (control antibody) (antibody)
VH: QVQLRESGPSLVKPSQTLSLTCTASGFSLSDKAVGWVRQAPGKALEWLGSIDTGGNTGYNPGLKSRLSITKDNSKSQVSLSVSSVTTEDSATYYCTSVHQETKKYQSCPDGYRERSDCSNRPACGTSDCCRVSVFGNCLTTLPVSYSYTYNYEWHVDVWGQGLLVTVSS
light: QAVLNQPSSVSGSLGQRVSITCSGSSSNVGNGYVSWYQLIPGSAPRTLIYGDTSRASGVPDRFSGSRSGNTATLTISSLQAEDEADYFCASAEDSSSNAVFGSGTTLTVLGQPKSPPSVTLFPPSTEELNGNKATLVCLISDFYPGSVTVVWKADGSTITRNVETTRASKQSNSKYAASSYLSLTSSDWKSKGSYSCEVTHEGSTVTKTVKPSECS
CXCR4 (human) [6]
  binding: no binding (tested: 1 ug/ml)
CXCR4 (human) [7]
  binding: no binding
